# Measured values taken from the supplement of paper PMC3334620.
# In all, about 33,000 sequences were measured (“E-score (-0.5 to 0.5)”: median about -0.0059, highest 2% from about 0.26 on). Some of the results follow.
# Target: T1, Cin5 (UniProt P40917)
# T1 sequence: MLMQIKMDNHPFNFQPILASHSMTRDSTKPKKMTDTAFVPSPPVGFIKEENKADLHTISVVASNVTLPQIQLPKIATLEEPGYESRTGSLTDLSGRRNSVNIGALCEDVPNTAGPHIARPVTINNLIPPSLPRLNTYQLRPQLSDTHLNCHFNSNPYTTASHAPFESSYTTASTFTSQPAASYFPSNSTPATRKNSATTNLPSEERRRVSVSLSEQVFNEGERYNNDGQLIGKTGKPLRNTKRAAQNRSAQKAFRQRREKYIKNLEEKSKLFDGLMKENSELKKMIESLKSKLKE
# Assay: PBM E-score (8-mer binding enrichment) (E-score (-0.5 to 0.5)); higher = stronger / more preferred TF binding
# Details: protein concentration: 100 nM; construct: GST-full length
# In short: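 Each ungapped eight-base word and its reverse complement, pooled, received an E-score from the Universal PBM Analysis Suite. Underlying scans, normalised with masliner, recorded fluorescent anti-GST bound to GST-tagged yeast transcription factors. These were applied at about 100-200 nM to universal all-10-mer Agilent arrays double-stranded by primer extension.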
row,Sequence,PBM E-score
1,AGTGGAAC,0.0539
2,ATTGGGCC,0.103
3,CCCAGCGG,-0.255
4,CGGCATTA,0.143
5,GCCTTCCC,-0.293
6,TCGTACGA,-0.0634
7,GCATGGCC,-0.126
8,ATATAATC,0.21
9,AACCACGG,-0.0848
10,CTGGGGGA,-0.375
11,CAATGGGG,0.0111
12,CATAGTTC,0.0652
13,CGAACACC,-0.0878
14,AGGAGGAC,-0.344
15,CCGCTCTA,0.00943
16,CAGGCTCC,-0.263
17,AACAAAAT,0.269
18,AATGAACG,0.113
19,AATACGAG,0.0911
20,AACCTACC,-0.023
21,AACCATCC,-0.0275
22,ACTATCGC,0.05

row,Sequence,PBM E-score
1,ACTAAGTC,-0.0533
2,TATAAAGA,0.0342
3,CCCGGCCC,-0.266
4,CTTCTTAC,-0.0456
5,GCCAATAA,0.216
6,AAAGCTGT,0.101
7,CAGCCCAC,-0.0991
8,ACTCTCGA,0.0307
9,AGCTAGGG,-0.0275
10,ACCCTATG,-0.00452
11,CGTATTAA,0.106
12,ACAGTCCG,-0.286
13,GCGGGGCC,-0.202
14,ATAGTTAC,0.121
15,AACCAACC,-0.0801
16,ACAGGTCG,-0.13
17,AATTGTGG,0.0144
18,GGCTCTGA,-0.183
19,ATCACTTA,0.0476
20,GTGGGGCA,-0.0176
21,ATTAATCG,0.228
22,TCTCATCA,0.184

row,Sequence,PBM E-score
1,CTGTAGGC,-0.155
2,CACGTTAC,-0.104
3,CTTACTTA,0.25
4,GGTGTAAA,0.0437
5,CTACACTA,-0.00599
6,GGTTTCTA,0.11
7,CTGTGTTA,0.154
8,ATTATCCA,0.122
9,CTACGGCA,-0.147
10,GATTTAAC,0.00182
11,GTCGTTCA,-0.111
12,CCGGCCAA,-0.138
13,CCTGCATC,-0.128
14,AATGCCAG,-0.0328
15,ATGCGTAG,-0.066
16,ACGATACT,-0.00523
17,CTACATAC,0.172
18,CGGCGAGA,0.0316
19,ATGCCACC,-0.105
20,ATTATAGC,0.151
21,CAGTGGAC,-0.175
22,ATGCCTCA,-0.0243

# Individual results from the list:
# Under PBM E-score, CTACGGCA shows -0.147
# Under PBM E-score, CAGTGGAC shows -0.175
# Under PBM E-score, ATGCGTAG shows -0.066
# Under PBM E-score, GGTGTAAA shows 0.0437

# Next results

row,Sequence,PBM E-score
1,CGGAGCAG,-0.0989
2,GCTGGCGA,-0.13
3,TAGTCGAA,0.114
4,AGTACGAA,0.167
5,TATATGCA,0.0672
6,CGCCAGCA,-0.232
7,GTAGTAGA,-0.0361
8,CAACAACA,0.213
9,ACGCCCAG,-0.171
10,CGCCGACC,-0.282
11,CCGCACCC,0.00644
12,AGGCATCA,-0.227
13,CGAAGAGA,-0.0316
14,TCAGATAA,0.184
15,AACAGTCC,-0.222
16,AGATCGCA,-0.00429
17,AGGAAGCG,0.0152
18,ACGGACCT,-0.0998
19,GGCGGGCA,0.0277
20,AGAAGGTG,0.0112
21,AGTAGGAG,-0.15
22,GGGGTAAA,0.0698

row,Sequence,PBM E-score
1,AGAAAGCT,0.0925
2,CCGCTAGA,-0.221
3,CTGGATGA,-0.0113
4,GGGACTGA,-0.293
5,ACACTCGG,0.0922
6,GCTGGGAC,-0.182
7,ATACACTG,0.0347
8,GACATACC,-0.00245
9,AATCCGTA,0.0606
10,GCACCCTA,-0.126
11,AATCTTTC,0.162
12,GTATGAAC,0.0601
13,AATCACTG,0.163
14,CACGTCTA,-0.0694
15,GGTTATAC,-0.104
16,CACTGCTC,-0.056
17,CGGTGCGC,-0.146
18,AGGTCTGG,-0.125
19,AAGACACT,0.0469
20,CGCGAGCG,-0.273
21,ATGAGAAT,0.121
